Measurements reported in publication PMC11791182, “Molecular mechanism targeting condensin for chromosome condensation” (The EMBO Journal, 2024).
No constants are given. Whether binding was seen depends on the method and setting. In cells and extracts the contact can be indirect. Some entries that bind do so weakly or less than the wild type. Tags and fused reporters may be left off the sequences shown.

The chains behind the UniProt entries cited, without tags or fusion partners. Where a name states a change or a piece, a line headed by the entry shows the natural chain unless it says otherwise.
UniProt P38170: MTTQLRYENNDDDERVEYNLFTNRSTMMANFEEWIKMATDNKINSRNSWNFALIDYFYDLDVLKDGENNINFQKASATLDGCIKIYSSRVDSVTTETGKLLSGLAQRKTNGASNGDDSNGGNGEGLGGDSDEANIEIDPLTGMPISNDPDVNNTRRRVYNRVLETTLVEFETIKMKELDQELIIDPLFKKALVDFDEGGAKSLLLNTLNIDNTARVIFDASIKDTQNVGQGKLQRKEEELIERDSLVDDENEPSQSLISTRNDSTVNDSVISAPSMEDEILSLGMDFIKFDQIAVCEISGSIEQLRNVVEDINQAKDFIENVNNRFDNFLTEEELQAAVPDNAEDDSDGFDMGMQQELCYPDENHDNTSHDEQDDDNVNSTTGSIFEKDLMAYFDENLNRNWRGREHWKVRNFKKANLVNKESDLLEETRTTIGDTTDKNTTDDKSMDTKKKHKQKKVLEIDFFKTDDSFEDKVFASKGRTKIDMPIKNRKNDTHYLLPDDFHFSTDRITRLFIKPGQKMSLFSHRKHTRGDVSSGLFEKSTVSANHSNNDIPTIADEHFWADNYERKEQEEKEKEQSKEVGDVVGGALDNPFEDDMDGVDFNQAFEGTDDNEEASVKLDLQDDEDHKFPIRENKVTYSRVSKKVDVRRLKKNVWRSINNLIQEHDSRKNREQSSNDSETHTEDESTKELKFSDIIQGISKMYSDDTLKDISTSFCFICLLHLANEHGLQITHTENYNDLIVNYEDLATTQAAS

Key:
Test in all cases: co-IP; purified GFP-Sgo1 fragments held on anti-GFP-coupled beads, incubated with sgo1Δ yeast extract (BRN1-6HA); 25 mM HEPES pH 7.5, 2 mM MgCl2, 15% glycerol, 0.1% NP-40, 150 mM KCl; immunoblot against Brn1-6HA; only the target purified
[1] = target: T1, GFP-Sgo1 (350–590) (S. cerevisiae) (UniProt Q08490)
T1 sequence: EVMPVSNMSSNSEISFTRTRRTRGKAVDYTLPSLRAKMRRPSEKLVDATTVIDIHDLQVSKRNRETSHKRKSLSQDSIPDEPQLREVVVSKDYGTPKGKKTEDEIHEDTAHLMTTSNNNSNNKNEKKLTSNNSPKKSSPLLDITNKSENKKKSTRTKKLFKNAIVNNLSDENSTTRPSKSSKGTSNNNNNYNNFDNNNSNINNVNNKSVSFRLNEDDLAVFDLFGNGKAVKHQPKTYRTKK

[2] = target: T2, GFP-Sgo1 (1–130) (S. cerevisiae) (UniProt Q08490)
T2 sequence: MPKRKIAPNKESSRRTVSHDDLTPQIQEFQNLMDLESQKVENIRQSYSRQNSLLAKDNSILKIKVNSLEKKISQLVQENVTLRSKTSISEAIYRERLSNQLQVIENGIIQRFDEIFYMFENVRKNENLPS

[3] = target: T3, GFP-Sgo1 (130–190) (S. cerevisiae) (UniProt Q08490)
T3 sequence: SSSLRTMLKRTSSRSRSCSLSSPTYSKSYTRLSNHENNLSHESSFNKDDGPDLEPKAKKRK

## condensin (Brn1-6HA) from sgo1Δ yeast extract (from UniProt P38170 1-754; P38989 1-1170; Q12267 1-1418; Q06680 1-1035; Q06156 1-1176) (complex)
[1]
  binding: binds
[2]
  binding: binds
[3]
  binding: no binding
